Numbering of substitutions follows the chain as printed. These are yes or no findings as the source states them, for the method shown. Some binding calls cover weakened binding; strength is not graded here.

Sequences of proteins named here, by UniProt entry; tags and fusion partners are left off. A change or cut given only in a name is not applied to a line headed by its entry.
UniProt P49961: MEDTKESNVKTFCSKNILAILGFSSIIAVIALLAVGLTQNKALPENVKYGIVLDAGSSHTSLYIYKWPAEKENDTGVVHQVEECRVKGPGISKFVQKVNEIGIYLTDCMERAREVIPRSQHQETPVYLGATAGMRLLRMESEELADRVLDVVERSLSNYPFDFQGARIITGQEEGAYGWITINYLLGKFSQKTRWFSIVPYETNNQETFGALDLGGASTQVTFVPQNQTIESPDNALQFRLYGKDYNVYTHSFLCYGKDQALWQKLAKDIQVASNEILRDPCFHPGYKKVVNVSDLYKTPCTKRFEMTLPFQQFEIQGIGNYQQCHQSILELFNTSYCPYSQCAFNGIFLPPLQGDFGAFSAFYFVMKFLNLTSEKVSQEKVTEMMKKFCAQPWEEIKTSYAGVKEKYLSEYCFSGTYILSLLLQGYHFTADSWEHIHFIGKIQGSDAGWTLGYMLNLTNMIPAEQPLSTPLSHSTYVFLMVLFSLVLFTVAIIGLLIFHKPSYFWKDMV

Assay [1] deals with human CD39 (protein; form not stated) (human) (UniProt P49961). Briefly: ELISA on coated ENTPD1 (CD39) protein, anti-hIgG-HRP, OD450.
Assay [2] shares this target. Briefly: ELISA, coated ENTPD1 protein.
In assay [3] the target is cynomolgus CD39 (full length, on CHOK1-cynoCD39 cells) (cynomolgus monkey). In words: FACS.
Assay [4] has the same target. In words: FACS on CHO-k1/Cyno CD39 cells, MFI [Continued) D].

B1: hu23.H5L5 (antibody, V domains shown)
VH: QVQLVQSGAEVKKPGASVKVSCKASGYNLKDTFLHWVRQAPGQGLEWMGRIDPANGNIKYDPKFQGRVTITADTSANTAYMELISLRSEDTAVYYCANSPYYYGSGYRIFDVWGQGTTVTVSS
VL: QIVLTQSPATLSLSPGERATLSCSAFSSVNYMHWYQQKPGQAPRLLIYTTSNLASGIPTRFSGSGSGTSYTLTISSLEPEDFAVYYCQQRSTYPFTFGQGTKLEIK
As for B1, the binding entry in assay [1], in assay [2], in assay [3] and in assay [4] was “binds” throughout.

B2: mAb23 (antibody, V domains shown)
VH: EVQLQQSGAELLRPGASVKLSCTASGYNLKDTFLHWVKQRPEQGLEWIGRIDPANGNIKYDPKFQGKATLTADTSSNTAYLQLISLTSEDTAVYYCANSPYYYGSGYRIFDVWGAGTTVTVSS
VL: QIVLTQSPAIMSASPGEKVTITCSAFSSVNYMHWYQQKPGTSPKLLIYTTSNLASGVPTRFSGSGSGTSYSLTISRMEAEDAATYYCQQRSTYPFTFGSGTKLEIQ
Take B2: the binding entry in assay [3] is “binds”.

B3: mAb34 (antibody, V domains shown)
VH: EIQVQQSGPELVKPGASVKVSCKASGYSFTDYNMYWVKQSHGKSLEWIGFIDPYNGYTSYNQKFKGKATLTIDKSSSTAFMHLNSLTSEDSAVYYCAIYGYDDAYYFDYWGQGTTLTVSS
VL: B2 VL with F26T, N30S, Y35F, Q36R, L46W, T49S, T59A, E78A, S91I, Q106T
In the case of B3, the binding result in assay [3] was “binds”.

B4: mAb13 (antibody, V domains shown)
VH: QIQLVQSGPELKKPGETVKISCKASGYTFTNYGMNWVKQAPGKGLRWMGLINTYTGEPTYADDFKDRFAFSLETSASTAFLQINNLKDEDMATYFCARKGIYYDYVWFFDVWGAGTTVTVSS
VL: DIQMTQSPSSLSTSLGGKVSITCKASQDINRYIAWYQHKPGKGPRLLIHYTSTLLPGIPSRFSGSGSGRDYSFSISNLEPEDIATYFCLQYSNLLTFGGGTKLEIK
In the case of B4, the binding result in assay [3] is on record as “binds”.

B5: mAb35 (antibody, V domains shown)
VH: EVRLQQSGAELVKPGASVKLSCTASGFNIEDTYVHWMKQRPEQGLEWIGRIDPAIDNSKYDPKFQGKATITAVSSSNTAYLQLSSLTSEDTAVYYCALYDGYNVYAMDYWGQGTSVTVSS
VL: DIVMTQAAFSNPVTLGTSASISCRSSKNLLHSNGITYLYWYLQRPGQSPQLLIYRASTLASGVPNRFSGSESGTDFTLRISRVEAEDVGVYYCAQLLELPHTFGGGTKLEIK
Regarding B5, in assay [3], the binding result is reported as “binds”.

B6: mAb14 (antibody, V domains shown)
VH: EVKLEESGGGLVQPGGSMKLSCVASGFTFSKYWMNWVRQSPEKGLEWVAEIRLKSNKYGTHYAESVKGRFTISRDDSKNNVYLQMNNLRPEDTGIYYCTTQLDLYWFFDVWGAGTTVTVSS
VL: DIVMTQSPAILSVTPGDRVSLSCRASQSISDYLHWYQQKSHESPRLLIKYASQSISGIPSRFSGSGSGSNFTLSINSVEPEDVGVYFCQNGHSLPLTFGAGTKLELR
Regarding B6, the binding entry in assay [3] is given as “binds”.

The values above are taken from patent publication US20210388105A1.
